Reference: the supplement of paper PMC6411743
± gives the standard deviation of the averaged measurements. This is one part of the list.

Amino acid sequences for entries named in this document (tags omitted). A change or cut given only in a name is not applied to a line headed by its entry.
UniProt Q9NWK9: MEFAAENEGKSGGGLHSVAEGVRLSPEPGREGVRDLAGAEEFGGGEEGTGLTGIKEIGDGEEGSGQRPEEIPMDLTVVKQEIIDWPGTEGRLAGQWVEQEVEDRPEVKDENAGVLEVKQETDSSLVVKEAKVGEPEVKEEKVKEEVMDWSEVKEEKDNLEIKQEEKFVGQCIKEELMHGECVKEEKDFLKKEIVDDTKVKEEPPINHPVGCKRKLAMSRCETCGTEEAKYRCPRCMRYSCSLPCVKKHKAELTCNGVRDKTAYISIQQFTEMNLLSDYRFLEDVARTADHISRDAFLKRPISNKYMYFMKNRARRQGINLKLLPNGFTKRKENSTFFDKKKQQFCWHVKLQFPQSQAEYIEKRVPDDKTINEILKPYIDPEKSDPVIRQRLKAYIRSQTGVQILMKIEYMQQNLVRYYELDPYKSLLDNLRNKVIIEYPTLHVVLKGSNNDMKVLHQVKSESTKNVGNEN
UniProt Q9NV56, whole entry: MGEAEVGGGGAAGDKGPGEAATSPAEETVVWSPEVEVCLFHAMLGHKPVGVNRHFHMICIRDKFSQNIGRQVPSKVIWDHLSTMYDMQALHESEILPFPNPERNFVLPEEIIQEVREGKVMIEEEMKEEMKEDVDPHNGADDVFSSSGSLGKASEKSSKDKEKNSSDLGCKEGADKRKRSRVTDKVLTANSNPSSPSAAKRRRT
UniProt Q9UI08, whole entry: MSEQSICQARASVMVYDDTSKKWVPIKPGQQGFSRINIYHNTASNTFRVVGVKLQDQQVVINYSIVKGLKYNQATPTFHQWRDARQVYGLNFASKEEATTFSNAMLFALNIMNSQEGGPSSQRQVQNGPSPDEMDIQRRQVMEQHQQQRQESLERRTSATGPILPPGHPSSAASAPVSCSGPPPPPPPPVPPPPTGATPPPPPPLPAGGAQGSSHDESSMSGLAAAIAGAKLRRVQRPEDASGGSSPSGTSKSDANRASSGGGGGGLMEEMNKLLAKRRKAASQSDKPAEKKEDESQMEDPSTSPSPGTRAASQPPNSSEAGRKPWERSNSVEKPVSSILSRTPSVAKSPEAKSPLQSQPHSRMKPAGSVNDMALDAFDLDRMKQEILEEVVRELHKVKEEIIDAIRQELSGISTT
UniProt Q9UJT0: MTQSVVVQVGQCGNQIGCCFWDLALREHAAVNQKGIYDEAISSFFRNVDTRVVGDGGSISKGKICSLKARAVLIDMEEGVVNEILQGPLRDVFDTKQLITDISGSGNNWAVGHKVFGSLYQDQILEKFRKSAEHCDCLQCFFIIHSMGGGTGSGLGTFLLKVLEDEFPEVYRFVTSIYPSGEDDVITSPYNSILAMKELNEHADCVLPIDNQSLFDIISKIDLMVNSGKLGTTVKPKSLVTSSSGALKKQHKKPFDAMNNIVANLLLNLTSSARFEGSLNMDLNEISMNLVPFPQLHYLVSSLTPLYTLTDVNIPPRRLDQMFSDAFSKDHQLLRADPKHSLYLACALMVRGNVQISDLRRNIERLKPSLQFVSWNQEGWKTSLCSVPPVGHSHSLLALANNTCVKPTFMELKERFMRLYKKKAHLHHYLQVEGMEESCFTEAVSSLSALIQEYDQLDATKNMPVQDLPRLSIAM
UniProt Q9P0K8: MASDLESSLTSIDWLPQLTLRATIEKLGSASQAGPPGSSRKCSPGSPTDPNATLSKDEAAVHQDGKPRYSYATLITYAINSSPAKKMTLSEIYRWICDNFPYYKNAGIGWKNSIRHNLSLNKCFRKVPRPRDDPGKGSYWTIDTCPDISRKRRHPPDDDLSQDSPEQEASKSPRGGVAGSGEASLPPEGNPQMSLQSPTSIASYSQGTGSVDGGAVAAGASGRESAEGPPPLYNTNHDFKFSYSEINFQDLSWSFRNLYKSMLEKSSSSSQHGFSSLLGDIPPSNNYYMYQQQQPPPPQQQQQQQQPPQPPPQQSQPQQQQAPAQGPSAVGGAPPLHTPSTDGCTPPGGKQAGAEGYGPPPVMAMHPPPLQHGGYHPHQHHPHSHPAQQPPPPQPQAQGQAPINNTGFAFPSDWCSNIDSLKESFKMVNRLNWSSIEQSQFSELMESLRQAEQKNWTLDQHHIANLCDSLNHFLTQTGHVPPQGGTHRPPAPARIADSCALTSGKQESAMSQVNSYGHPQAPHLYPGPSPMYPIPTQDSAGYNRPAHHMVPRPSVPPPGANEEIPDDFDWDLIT
UniProt Q9NXE8: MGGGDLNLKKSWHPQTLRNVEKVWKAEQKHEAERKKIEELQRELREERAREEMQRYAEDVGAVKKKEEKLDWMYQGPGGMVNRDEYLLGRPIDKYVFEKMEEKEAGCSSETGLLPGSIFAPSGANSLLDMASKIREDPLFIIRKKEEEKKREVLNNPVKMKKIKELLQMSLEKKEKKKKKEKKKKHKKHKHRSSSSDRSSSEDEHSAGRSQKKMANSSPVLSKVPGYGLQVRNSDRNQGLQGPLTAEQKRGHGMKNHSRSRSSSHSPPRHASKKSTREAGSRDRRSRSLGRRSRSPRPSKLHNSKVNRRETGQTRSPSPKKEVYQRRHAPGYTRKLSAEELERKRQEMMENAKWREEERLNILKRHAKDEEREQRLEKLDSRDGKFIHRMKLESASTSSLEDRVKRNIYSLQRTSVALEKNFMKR
UniProt Q9NWR8: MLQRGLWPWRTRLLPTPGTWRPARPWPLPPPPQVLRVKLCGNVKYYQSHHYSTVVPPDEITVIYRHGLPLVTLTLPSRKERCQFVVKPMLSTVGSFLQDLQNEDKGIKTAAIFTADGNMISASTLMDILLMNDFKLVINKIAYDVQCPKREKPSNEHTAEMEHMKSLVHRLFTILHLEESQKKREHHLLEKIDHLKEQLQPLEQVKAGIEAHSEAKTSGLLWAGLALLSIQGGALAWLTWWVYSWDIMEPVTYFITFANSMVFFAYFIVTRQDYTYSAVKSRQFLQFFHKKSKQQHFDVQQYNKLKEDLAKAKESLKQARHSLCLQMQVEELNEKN
UniProt Q9UBT2: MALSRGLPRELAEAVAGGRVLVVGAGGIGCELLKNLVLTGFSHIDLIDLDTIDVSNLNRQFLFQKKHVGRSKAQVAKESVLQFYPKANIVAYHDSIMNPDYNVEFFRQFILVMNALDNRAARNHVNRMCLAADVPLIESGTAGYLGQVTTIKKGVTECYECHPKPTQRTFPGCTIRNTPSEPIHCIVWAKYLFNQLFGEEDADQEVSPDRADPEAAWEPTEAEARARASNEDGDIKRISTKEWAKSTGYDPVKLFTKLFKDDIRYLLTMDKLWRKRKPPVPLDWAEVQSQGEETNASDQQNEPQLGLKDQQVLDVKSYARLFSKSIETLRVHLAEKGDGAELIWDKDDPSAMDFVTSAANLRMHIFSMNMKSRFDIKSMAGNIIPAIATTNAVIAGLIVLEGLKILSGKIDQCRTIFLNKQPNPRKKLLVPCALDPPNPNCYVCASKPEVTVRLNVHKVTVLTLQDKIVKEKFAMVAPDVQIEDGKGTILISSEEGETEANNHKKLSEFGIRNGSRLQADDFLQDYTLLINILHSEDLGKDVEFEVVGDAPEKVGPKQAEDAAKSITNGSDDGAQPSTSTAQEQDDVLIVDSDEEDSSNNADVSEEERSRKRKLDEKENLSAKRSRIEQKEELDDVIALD
UniProt Q9UHR6: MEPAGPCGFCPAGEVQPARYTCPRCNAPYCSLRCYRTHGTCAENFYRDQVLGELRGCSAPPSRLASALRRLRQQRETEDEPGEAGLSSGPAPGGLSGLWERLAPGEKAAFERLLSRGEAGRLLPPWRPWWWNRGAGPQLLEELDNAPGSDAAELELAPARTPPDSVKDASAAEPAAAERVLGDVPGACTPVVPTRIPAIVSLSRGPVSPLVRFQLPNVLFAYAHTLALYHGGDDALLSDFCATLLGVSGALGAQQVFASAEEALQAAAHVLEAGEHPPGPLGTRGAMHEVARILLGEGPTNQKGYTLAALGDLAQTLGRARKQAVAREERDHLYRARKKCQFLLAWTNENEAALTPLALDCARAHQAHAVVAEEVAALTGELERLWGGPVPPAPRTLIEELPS
UniProt Q9NXR7, whole entry: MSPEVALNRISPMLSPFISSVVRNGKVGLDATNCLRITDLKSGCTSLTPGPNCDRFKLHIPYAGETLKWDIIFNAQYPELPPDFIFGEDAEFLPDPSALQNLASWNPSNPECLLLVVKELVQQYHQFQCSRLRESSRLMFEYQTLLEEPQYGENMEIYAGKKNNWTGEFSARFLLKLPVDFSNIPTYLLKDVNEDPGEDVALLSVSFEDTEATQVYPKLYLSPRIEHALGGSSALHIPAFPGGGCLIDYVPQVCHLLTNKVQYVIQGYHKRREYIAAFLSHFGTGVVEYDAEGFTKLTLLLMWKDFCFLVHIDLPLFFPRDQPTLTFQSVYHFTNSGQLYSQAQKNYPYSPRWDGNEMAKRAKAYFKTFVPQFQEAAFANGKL
UniProt Q9UBQ7: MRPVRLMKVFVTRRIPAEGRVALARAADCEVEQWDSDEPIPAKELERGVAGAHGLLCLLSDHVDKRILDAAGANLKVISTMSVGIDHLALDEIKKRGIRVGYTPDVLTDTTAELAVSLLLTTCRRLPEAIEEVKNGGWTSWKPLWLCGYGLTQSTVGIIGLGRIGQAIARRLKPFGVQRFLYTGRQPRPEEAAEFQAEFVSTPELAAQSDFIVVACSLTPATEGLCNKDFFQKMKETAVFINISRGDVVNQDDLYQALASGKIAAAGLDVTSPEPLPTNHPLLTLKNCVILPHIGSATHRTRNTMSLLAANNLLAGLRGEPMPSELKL
UniProt Q9UBS0: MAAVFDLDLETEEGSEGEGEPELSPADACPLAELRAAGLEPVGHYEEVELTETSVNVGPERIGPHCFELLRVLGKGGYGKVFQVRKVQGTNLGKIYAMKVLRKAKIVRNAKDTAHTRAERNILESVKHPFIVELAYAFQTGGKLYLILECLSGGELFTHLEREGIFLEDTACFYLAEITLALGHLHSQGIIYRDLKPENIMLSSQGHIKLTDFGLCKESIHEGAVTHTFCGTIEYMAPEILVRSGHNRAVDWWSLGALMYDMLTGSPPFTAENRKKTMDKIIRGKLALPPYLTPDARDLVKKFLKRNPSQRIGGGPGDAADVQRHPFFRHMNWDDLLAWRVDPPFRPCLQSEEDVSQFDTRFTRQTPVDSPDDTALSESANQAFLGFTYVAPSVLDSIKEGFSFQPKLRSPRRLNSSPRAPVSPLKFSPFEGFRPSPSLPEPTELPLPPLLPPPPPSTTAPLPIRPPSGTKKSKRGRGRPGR
UniProt Q9NVG8: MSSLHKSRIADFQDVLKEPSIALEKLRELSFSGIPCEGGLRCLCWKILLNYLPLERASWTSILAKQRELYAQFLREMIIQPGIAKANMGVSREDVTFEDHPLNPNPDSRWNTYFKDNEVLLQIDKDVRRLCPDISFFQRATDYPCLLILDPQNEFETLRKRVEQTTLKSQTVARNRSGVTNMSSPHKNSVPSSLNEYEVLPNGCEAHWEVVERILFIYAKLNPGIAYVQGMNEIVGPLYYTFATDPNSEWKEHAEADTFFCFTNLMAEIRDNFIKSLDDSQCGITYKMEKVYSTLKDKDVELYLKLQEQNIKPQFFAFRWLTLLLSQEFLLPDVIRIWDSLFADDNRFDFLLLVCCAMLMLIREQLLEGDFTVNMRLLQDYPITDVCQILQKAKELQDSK
UniProt Q9NXA8: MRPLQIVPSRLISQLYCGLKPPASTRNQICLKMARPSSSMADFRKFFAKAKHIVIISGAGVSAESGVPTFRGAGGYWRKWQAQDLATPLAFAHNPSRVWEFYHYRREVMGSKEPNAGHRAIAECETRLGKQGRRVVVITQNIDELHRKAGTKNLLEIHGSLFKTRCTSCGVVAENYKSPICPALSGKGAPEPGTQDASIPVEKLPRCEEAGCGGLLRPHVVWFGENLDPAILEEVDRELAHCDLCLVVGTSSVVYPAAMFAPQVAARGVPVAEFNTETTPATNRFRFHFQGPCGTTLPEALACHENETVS
UniProt Q9NV88, whole entry: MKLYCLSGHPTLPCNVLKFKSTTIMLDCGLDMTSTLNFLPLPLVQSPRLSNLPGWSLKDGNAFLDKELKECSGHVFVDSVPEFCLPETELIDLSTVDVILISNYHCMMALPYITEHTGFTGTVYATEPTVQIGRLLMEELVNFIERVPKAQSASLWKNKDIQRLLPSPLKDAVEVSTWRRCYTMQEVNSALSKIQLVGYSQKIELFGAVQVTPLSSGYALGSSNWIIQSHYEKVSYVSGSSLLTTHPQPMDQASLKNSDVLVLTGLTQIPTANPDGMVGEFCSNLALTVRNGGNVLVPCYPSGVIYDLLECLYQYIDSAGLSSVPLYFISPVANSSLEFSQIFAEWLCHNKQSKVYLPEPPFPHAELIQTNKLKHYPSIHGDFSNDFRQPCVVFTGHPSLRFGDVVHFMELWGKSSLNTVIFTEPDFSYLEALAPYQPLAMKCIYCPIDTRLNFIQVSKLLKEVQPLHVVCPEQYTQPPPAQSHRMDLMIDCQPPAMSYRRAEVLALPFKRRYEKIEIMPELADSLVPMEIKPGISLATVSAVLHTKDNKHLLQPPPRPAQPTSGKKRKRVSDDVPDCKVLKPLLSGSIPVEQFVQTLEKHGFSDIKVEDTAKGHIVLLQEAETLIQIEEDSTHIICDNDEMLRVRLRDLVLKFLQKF

Compound: Nc1nc2c(ncn2[C@@H]2O[C@H](COP(=O)(O)OP(=O)(O)OP(=O)(O)O)[C@@H](O)[C@H]2O)c(=O)[nH]1 [guanosine triphosphate]
Test: NP40-soluble protein abundance relative to vehicle (solubility fold change) (ratio); higher = more soluble protein in presence of GTP
Method in brief: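 Crude Jurkat lysate, prepared by Dounce homogenisation, was exposed to eight concentrations from 0.1 to 10 mM for 10 min at room temperature and then 3 min at 37 °C. Solubilisation used 0.8% NP40 with benzonase for 60 min at 4 °C, followed by ultracentrifugation and TMT labelling of the supernatant for LC-MS/MS. After vsn normalisation of intensities, each value is the fold change against the detergent-processed vehicle within each replicate, across three independent experiments.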

Target	NP40-soluble protein abundance (concentration: 0.1mM)	NP40-soluble protein abundance (concentration: 0.5mM)	NP40-soluble protein abundance (concentration: 1mM)	NP40-soluble protein abundance (concentration: 2mM)	NP40-soluble protein abundance (concentration: 4mM)	NP40-soluble protein abundance (concentration: 6mM)	NP40-soluble protein abundance (concentration: 8mM)	NP40-soluble protein abundance (concentration: 10mM)
UniProt Q9NW68-2|Q9NW68-4|Q9NW68	0.882 ± 0.03	0.863 ± 0.061	0.935 ± 0.019	0.929 ± 0.065	0.856 ± 0.064	0.914 ± 0.063	0.874 ± 0.055	0.969 ± 0.022
UniProt Q9UJX6 and related entries	1.3 ± 0.28	1.33 ± 0.37	1.18 ± 0.28	1.26 ± 0.47	1.3 ± 0.37	1.25 ± 0.46	1.12 ± 0.31	1.22 ± 0.48
UniProt Q9UJU2 and related entries	0.892 ± 0.033	0.88 ± 0.011	0.978 ± 0.053	0.962 ± 0.054	0.938 ± 0.092	0.944 ± 0.079	0.99 ± 0.077	1.08 ± 0.092
UniProt Q9NWK9 and related entries	1.05 ± 0.065	1.06 ± 0.02	1.13 ± 0.085	1.13 ± 0.1	1.1 ± 0.082	1.12 ± 0.091	1.18 ± 0.15	1.15 ± 0.17
UniProt Q9NV56	0.945 ± 0.026	0.879 ± 0.061	1.01 ± 0.075	1.05 ± 0.048	1.03 ± 0.022	1.06 ± 0.054	1.04 ± 0.11	1.13 ± 0.12
UniProt Q9UI08 and related entries	0.933 ± 0.069	0.943 ± 0.093	0.983 ± 0.11	0.926 ± 0.1	0.917 ± 0.11	0.94 ± 0.1	0.95 ± 0.071	0.965 ± 0.095
UniProt Q9UKA9 and related entries	1.04 ± 0.021	0.985 ± 0.025	1.01 ± 0.014	0.989 ± 0.045	0.947 ± 0.051	0.955 ± 0.036	0.963 ± 0.029	0.906 ± 0.027
TUBE1 (UniProt Q9UJT0)	1.04 ± 0.037	1.04 ± 0.068	1.03 ± 0.035	0.981 ± 0.049	1.04 ± 0.054	0.965 ± 0.03	1.02 ± 0.092	1 ± 0.035
UniProt Q9P0K8 and related entries	0.907 ± 0.056	0.873 ± 0.053	0.931 ± 0.067	0.884 ± 0.053	0.887 ± 0.14	0.869 ± 0.077	0.901 ± 0.17	0.783 ± 0.15
RAB22A (UniProt Q9UL26)	1.1 ± 0.045	1.04 ± 0.034	1.01 ± 0.014	1.01 ± 0.06	1.03 ± 0.072	0.938 ± 0.049	0.954 ± 0.047	0.922 ± 0.062
KCMF1 (UniProt Q9P0J7)	1.05 ± 0.23	1.19 ± 0.2	1.22 ± 0.28	1.29 ± 0.34	1.36 ± 0.28	1.31 ± 0.33	1.33 ± 0.34	1.36 ± 0.38
UniProt Q9UKV8	1.08 ± 0.065	1.14 ± 0.053	1.06 ± 0.045	1.11 ± 0.053	1.1 ± 0.026	1.07 ± 0.078	1.07 ± 0.057	1.05 ± 0.061
UniProt Q9NXE8	1.05 ± 0.07	1.05 ± 0.082	1.18 ± 0.12	1.09 ± 0.19	1.2 ± 0.099	1.16 ± 0.19	1.174 ± 0.0048	1.23 ± 0.16
UniProt Q9NWR8	1.06 ± 0.13	1.05 ± 0.099	0.987 ± 0.11	1.08 ± 0.12	1.05 ± 0.15	1.02 ± 0.05	1.02 ± 0.095	0.99 ± 0.11
UniProt Q9UIG0 and related entries	0.907 ± 0.029	0.912 ± 0.061	1 ± 0.053	1.01 ± 0.077	1.11 ± 0.076	1.27 ± 0.13	1.32 ± 0.12	1.62 ± 0.089
UniProt Q9UBT2 and related entries	0.979 ± 0.01	0.9978 ± 0.0062	0.945 ± 0.019	0.911 ± 0.025	0.911 ± 0.041	0.899 ± 0.027	0.902 ± 0.037	0.87 ± 0.044
ZNHIT2 (UniProt Q9UHR6)	1.11 ± 0.12	0.997 ± 0.012	0.996 ± 0.029	1.11 ± 0.054	1.106 ± 0.0074	1.1 ± 0.028	1.1 ± 0.074	1.08 ± 0.058
UniProt Q9P2R7 and related entries	0.948 ± 0.063	0.955 ± 0.055	0.895 ± 0.048	0.874 ± 0.046	0.855 ± 0.033	0.857 ± 0.039	0.847 ± 0.062	0.831 ± 0.065
UniProt Q9NXR7	1.07 ± 0.051	1.04 ± 0.058	1.06 ± 0.081	1.06 ± 0.069	1.11 ± 0.075	1.05 ± 0.067	1.08 ± 0.053	1.04 ± 0.026
UniProt Q9ULJ3 and related entries	1.05 ± 0.089	1.02 ± 0.092	1.04 ± 0.09	1.01 ± 0.11	0.942 ± 0.086	0.981 ± 0.12	1 ± 0.12	0.928 ± 0.079
GRHPR (UniProt Q9UBQ7)	0.995 ± 0.024	1.01 ± 0.067	0.847 ± 0.042	0.866 ± 0.06	0.834 ± 0.039	0.829 ± 0.036	0.773 ± 0.059	0.798 ± 0.062
UniProt Q9NVH1 and related entries	1.01 ± 0.016	1 ± 0.032	0.9534 ± 0.0044	0.955 ± 0.047	0.953 ± 0.043	0.941 ± 0.045	0.96 ± 0.046	0.883 ± 0.043
UniProt Q9ULI0 and related entries	1.06 ± 0.14	1.13 ± 0.14	1.36 ± 0.12	1.46 ± 0.044	1.41 ± 0.073	1.44 ± 0.03	1.53 ± 0.21	1.45 ± 0.21
UniProt Q9UBS0	1.13 ± 0.16	1.14 ± 0.09	1.04 ± 0.14	1.11 ± 0.056	1.18 ± 0.14	1.05 ± 0.088	1.1 ± 0.22	1.04 ± 0.15
TBC1D13 (UniProt Q9NVG8)	0.962 ± 0.036	0.985 ± 0.048	0.927 ± 0.046	0.896 ± 0.047	0.857 ± 0.071	0.866 ± 0.066	0.847 ± 0.1	0.822 ± 0.089
UniProt Q9UJY5 and related entries	0.918 ± 0.065	0.944 ± 0.1	0.955 ± 0.071	0.921 ± 0.12	0.893 ± 0.086	0.907 ± 0.1	0.929 ± 0.076	0.912 ± 0.09
UniProt Q9UHY1 and related entries	0.99 ± 0.024	0.959 ± 0.027	1.01 ± 0.035	0.972 ± 0.039	0.967 ± 0.073	0.97 ± 0.049	0.954 ± 0.07	0.949 ± 0.033
UniProt Q9NXA8 and related entries	1.09 ± 0.043	1.04 ± 0.0073	0.978 ± 0.011	0.977 ± 0.052	0.993 ± 0.1	1.01 ± 0.11	1.01 ± 0.08	0.959 ± 0.047
UniProt Q9NV88 and related entries	1.11 ± 0.074	1.1 ± 0.03	1.036 ± 0.0055	1.06 ± 0.055	1.12 ± 0.11	1.08 ± 0.074	1.13 ± 0.096	1.09 ± 0.054
UniProt Q9UL03 and related entries	1.1 ± 0.13	1.13 ± 0.17	1.18 ± 0.24	1.26 ± 0.24	1.3 ± 0.23	1.27 ± 0.22	1.28 ± 0.26	1.28 ± 0.23

Reformatted as comma-separated lines: entries from further up
Target,NP40-soluble protein abundance (concentration: 0.1mM),NP40-soluble protein abundance (concentration: 0.5mM),NP40-soluble protein abundance (concentration: 1mM),NP40-soluble protein abundance (concentration: 2mM),NP40-soluble protein abundance (concentration: 4mM),NP40-soluble protein abundance (concentration: 6mM),NP40-soluble protein abundance (concentration: 8mM),NP40-soluble protein abundance (concentration: 10mM)
UniProt Q9NV56,0.945 ± 0.026,0.879 ± 0.061,1.01 ± 0.075,1.05 ± 0.048,1.03 ± 0.022,1.06 ± 0.054,1.04 ± 0.11,1.13 ± 0.12
UniProt Q9UI08 and related entries,0.933 ± 0.069,0.943 ± 0.093,0.983 ± 0.11,0.926 ± 0.1,0.917 ± 0.11,0.94 ± 0.1,0.95 ± 0.071,0.965 ± 0.095
UniProt Q9UKA9 and related entries,1.04 ± 0.021,0.985 ± 0.025,1.01 ± 0.014,0.989 ± 0.045,0.947 ± 0.051,0.955 ± 0.036,0.963 ± 0.029,0.906 ± 0.027
TUBE1 (UniProt Q9UJT0),1.04 ± 0.037,1.04 ± 0.068,1.03 ± 0.035,0.981 ± 0.049,1.04 ± 0.054,0.965 ± 0.03,1.02 ± 0.092,1 ± 0.035
UniProt Q9P0K8 and related entries,0.907 ± 0.056,0.873 ± 0.053,0.931 ± 0.067,0.884 ± 0.053,0.887 ± 0.14,0.869 ± 0.077,0.901 ± 0.17,0.783 ± 0.15
RAB22A (UniProt Q9UL26),1.1 ± 0.045,1.04 ± 0.034,1.01 ± 0.014,1.01 ± 0.06,1.03 ± 0.072,0.938 ± 0.049,0.954 ± 0.047,0.922 ± 0.062
KCMF1 (UniProt Q9P0J7),1.05 ± 0.23,1.19 ± 0.2,1.22 ± 0.28,1.29 ± 0.34,1.36 ± 0.28,1.31 ± 0.33,1.33 ± 0.34,1.36 ± 0.38
UniProt Q9UKV8,1.08 ± 0.065,1.14 ± 0.053,1.06 ± 0.045,1.11 ± 0.053,1.1 ± 0.026,1.07 ± 0.078,1.07 ± 0.057,1.05 ± 0.061
UniProt Q9NXE8,1.05 ± 0.07,1.05 ± 0.082,1.18 ± 0.12,1.09 ± 0.19,1.2 ± 0.099,1.16 ± 0.19,1.174 ± 0.0048,1.23 ± 0.16
